Test results from PMC12691606.
Results are given in words; binding and its absence hold for the method and conditions named. For some assays here: A result given as binding can be weak or reduced; the word gives no strength. Tags and fused reporters may be left off the sequences shown. For some assays here: Binding seen in cells or lysates may run through a third protein.

What was measured:
[1] = biological target: T1, EcCXCR4b-6His (pcDNA4.0-EcCXCR4b-6His) (Epinephelus coioides) (UniProt G0XMT3); assay: co-IP; cells co-transfected with the two plasmids for 24 h; lysate on resin immobilized with anti-His antibody overnight at 4°C (Pierce Co-IP Kit); western blotting
T1 sequence: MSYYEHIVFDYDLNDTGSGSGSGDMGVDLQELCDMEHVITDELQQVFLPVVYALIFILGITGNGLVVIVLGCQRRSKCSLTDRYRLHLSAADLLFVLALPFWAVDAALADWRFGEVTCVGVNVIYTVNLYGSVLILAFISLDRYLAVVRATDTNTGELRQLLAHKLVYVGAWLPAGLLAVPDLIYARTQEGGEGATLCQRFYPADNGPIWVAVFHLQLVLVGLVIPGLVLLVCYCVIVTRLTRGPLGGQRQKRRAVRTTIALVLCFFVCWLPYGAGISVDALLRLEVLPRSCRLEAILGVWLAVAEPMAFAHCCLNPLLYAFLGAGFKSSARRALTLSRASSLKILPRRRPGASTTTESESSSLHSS

[2] = biological target: T1, EcCXCR4b-6His (pcDNA4.0-EcCXCR4b-6His) (Epinephelus coioides); assay: co-IP; RGNNV-infected GS cells transfected with pcDNA4.0-EcCXCR4b-6His; lysate immunoprecipitated with anti-His antibody; western blotting
[3] = biological target: T2, His-EcCXCR4b recombinant protein (pET-32a-EcCXCR4b) (Epinephelus coioides) (UniProt G0XMT3); assay: ELISA; His-EcCXCR4b serially diluted in PBS and coated on 96-well plates overnight at 4°C; blocked with 2% BSA; purified His-CP added for 2 h; mouse anti-His and HRP anti-mouse IgG; OD450; both purified
T2 sequence: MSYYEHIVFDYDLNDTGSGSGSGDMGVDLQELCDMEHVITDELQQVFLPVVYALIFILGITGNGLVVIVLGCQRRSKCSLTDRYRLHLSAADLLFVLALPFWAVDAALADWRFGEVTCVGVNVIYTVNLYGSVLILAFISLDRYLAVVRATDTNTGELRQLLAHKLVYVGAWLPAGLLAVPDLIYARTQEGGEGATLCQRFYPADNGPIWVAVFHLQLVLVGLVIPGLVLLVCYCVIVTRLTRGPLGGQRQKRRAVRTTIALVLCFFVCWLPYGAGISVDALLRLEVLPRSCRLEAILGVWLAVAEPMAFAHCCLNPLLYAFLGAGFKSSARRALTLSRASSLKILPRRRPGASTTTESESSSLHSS

[4] = biological target: T3, GFP-EcCXCR4b (Epinephelus coioides) (UniProt G0XMT3); assay: co-IP; GS cells co-transfected for 24 h; lysates immunoprecipitated with anti-GFP antibodies; western blotting
T3 sequence: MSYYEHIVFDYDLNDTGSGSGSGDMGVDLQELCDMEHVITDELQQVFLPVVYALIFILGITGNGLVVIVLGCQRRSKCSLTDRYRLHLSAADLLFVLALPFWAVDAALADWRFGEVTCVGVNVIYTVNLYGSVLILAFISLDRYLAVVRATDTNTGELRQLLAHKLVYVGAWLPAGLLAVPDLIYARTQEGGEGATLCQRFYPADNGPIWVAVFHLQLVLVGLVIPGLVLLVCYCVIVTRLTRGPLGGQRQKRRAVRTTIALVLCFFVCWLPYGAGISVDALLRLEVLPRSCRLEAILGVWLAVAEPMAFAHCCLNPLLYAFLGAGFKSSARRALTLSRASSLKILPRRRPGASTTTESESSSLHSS

[5] = biological target: His-CP fusion protein (pET-32a-CP) (red-spotted grouper nervous necrosis virus (RGNNV)); assay: pull-down; purified His-CP incubated with lysate of GS cells expressing GFP-EcCXCR4b; complexes enriched on resin immobilized with His antibodies at 4°C overnight; immunoblot; only the target purified
[6] = biological target: His-ΔN-arm (red-spotted grouper nervous necrosis virus (RGNNV)); assay: co-IP; cells co-transfected with the two plasmids for 24 h; lysate on resin immobilized with anti-His antibody overnight at 4°C (Pierce Co-IP Kit); western blotting
[7] = biological target: CP-6His (pcDNA4.0-CP-6His) (red-spotted grouper nervous necrosis virus (RGNNV)); assay: as above
[8] = biological target: His-ΔN-ARM (red-spotted grouper nervous necrosis virus (RGNNV)); assay: as above
[9] = biological target: His-ΔS-domain (red-spotted grouper nervous necrosis virus (RGNNV)); assay: as above
[10] = biological target: His-ΔLR (red-spotted grouper nervous necrosis virus (RGNNV)); assay: as above
[11] = biological target: His-ΔP-domain (red-spotted grouper nervous necrosis virus (RGNNV)); assay: as above

## GFP-CP (pGFP-CP)
[1]
  binding: binds

## RGNNV capsid protein (CP) of the virus
[2]
  binding: binds

## His-CP fusion protein (pET-32a-CP)
[3]
  binding: binds

## Clathrin-6His (pcDNA4.0-Clathrin-6His)
[4]
  binding: binds

B1: GFP-EcCXCR4b (receptor, UniProt G0XMT3 1-367)
chain: MSYYEHIVFDYDLNDTGSGSGSGDMGVDLQELCDMEHVITDELQQVFLPVVYALIFILGITGNGLVVIVLGCQRRSKCSLTDRYRLHLSAADLLFVLALPFWAVDAALADWRFGEVTCVGVNVIYTVNLYGSVLILAFISLDRYLAVVRATDTNTGELRQLLAHKLVYVGAWLPAGLLAVPDLIYARTQEGGEGATLCQRFYPADNGPIWVAVFHLQLVLVGLVIPGLVLLVCYCVIVTRLTRGPLGGQRQKRRAVRTTIALVLCFFVCWLPYGAGISVDALLRLEVLPRSCRLEAILGVWLAVAEPMAFAHCCLNPLLYAFLGAGFKSSARRALTLSRASSLKILPRRRPGASTTTESESSSLHSS
[5]
  binding: binds
[6]
  binding: binds
[7]
  binding: binds
[8]
  binding: binds
[9]
  binding: binds
[10]
  binding: no binding
[11]
  binding: binds
